Laboratory results: PubChem BioAssay AID1224826 (NIAID, 2016)
The whole screen tested about 17,000 reagents; below is an unselected part. Over the whole deposit, about 1,110 (6.6%) are marked active. 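Active means lowered or raised reporter signal; replicate intensities are raw and not normalised per plate.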 Entries without a mark were called inactive. Further read-outs or replicates are left out here.

Aim: 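Knock-downs that raise or lower Tnf reporter signal after endotoxin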 (primary screen)
Cells: RAW264.7 G9 macrophages from mouse bearing reporters for p65 (GFP) and the Tnf promoter (mCherry)
Reagents: siRNA pool against mouse genes, 100 nM
Time to read-out: 16 h of LPS stimulation, after 2 days of siRNA transfection
Conditions: bacterial lipopolysaccharide (Salmonella minnesota R595), 10 ng/ml
Read-out: 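Nuclear mCherry signal of the Tnf promoter reporter measured by imaging after background removal, scaled to each plate median and turned into robust z-scores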
Scale: Tnf reporter robust z-score: higher = stronger Tnf promoter reporter signal after LPS; Tnf reporter intensity: higher = stronger Tnf promoter reporter signal
Hit rule: 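Called active when robust z-score is at most -1.3, matching the median of the Tlr4 knock-down control, or over 3; control wells and wells with under 50 cells never active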
Meaning of the calls: active = Tnf reporter clearly lowered or raised; inactive = no clear change in Tnf reporter

gene knocked down | Tnf reporter robust z-score | fewer than 50 cells in well | Tnf reporter intensity, replicate 1
Blm (GeneID 12144) | 0.68 | enough cells in well | 168
Zbtb18 (GeneID 30928) | 0.15 | enough cells in well | 259
Jdp2 (GeneID 81703) | -0.01 | enough cells in well | 203
Zfp687 (GeneID 78266) | – | fewer than 50 cells per well; well left out of calls | 172
Arx (GeneID 11878) | -1.27 | enough cells in well | 131
Unc50 (GeneID 67387) | – | fewer than 50 cells per well; well left out of calls | 123
Dpm1 (GeneID 13480) | -0.61 | enough cells in well | 187
Siah1b (GeneID 20438) | 0.29 | enough cells in well | 93.9
Kptn (GeneID 70394) | -0.33 | enough cells in well | 220
Ercc1 (GeneID 13870) | 0.59 | enough cells in well | 275
Hoxd3 (GeneID 15434) | -0.21 | enough cells in well | 226
Nipal2 (GeneID 223473) | 1.03 | enough cells in well | 261
Cox6c (GeneID 12864) | -0.56 | enough cells in well | 126
Flvcr2 (GeneID 217721) | 0.1 | enough cells in well | 172
Or7g16 (GeneID 258598) | 1.99 | enough cells in well | 220
Srgap3 (GeneID 259302) | 0.52 | enough cells in well | 232
Nim1k (GeneID 245269) | 1.38 | enough cells in well | 332
Alg3 (GeneID 208624) | 0.01 | enough cells in well | 168
Atoh7 (GeneID 53404) | 1.89 | enough cells in well | 154
Csnk1a1 (GeneID 93687) | -1.14 | enough cells in well | 107
Or10h1 (GeneID 100038860) | 0.42 | enough cells in well | 344
1700082M22Rik (GeneID 105243269) | – | fewer than 50 cells per well; well left out of calls | 96.8
Gramd1c (GeneID 207798) | – | fewer than 50 cells per well; well left out of calls | 112
Pdcd11 (GeneID 18572) | – | fewer than 50 cells per well; well left out of calls | 82.2
Hpdl (GeneID 242642) | 0.04 | enough cells in well | 194
Vdac1 (GeneID 22333) | – | fewer than 50 cells per well; well left out of calls | 75.7
Fgf2os (GeneID 329626) | -0.73 | enough cells in well | 156
F12 (GeneID 58992) | 0.16 | enough cells in well | 270
Ubap2l (GeneID 74383) | – | fewer than 50 cells per well; well left out of calls | 215
Actl9 (GeneID 69481) | 1.75 | enough cells in well | 335
Bmp6 (GeneID 12161) | – | fewer than 50 cells per well; well left out of calls | 68.1
Cntn4 (GeneID 269784) | -0.4 | enough cells in well | 145
Fxyd5 (GeneID 18301) | 0.77 | enough cells in well | 316
Tppp3 (GeneID 67971) | – | fewer than 50 cells per well; well left out of calls | 258
Trappc8 (GeneID 75964) | -0.32 | enough cells in well | 167
Grm1 (GeneID 14816) | -0.55 | enough cells in well | 186
Ptpa (GeneID 110854) | 0.68 | enough cells in well | 282
4930451E10Rik (GeneID 78111) | – | fewer than 50 cells per well; well left out of calls | 147
Kars1 (GeneID 85305) | -0.19 | enough cells in well | 197
Zrsr2 (GeneID 22184) | – | fewer than 50 cells per well; well left out of calls | 51.4
Azi2 (GeneID 27215) | -1.66 (active) | enough cells in well | 79.4
Lin52 (GeneID 217708) | – | fewer than 50 cells per well; well left out of calls | 94.4
Muc15 (GeneID 269328) | -0.18 | enough cells in well | 228
Lsm7 (GeneID 66094) | -1.64 (active) | enough cells in well | 86.6
Gtf2h5 (GeneID 66467) | 0.32 | enough cells in well | 194
Negr1 (GeneID 320840) | -1.42 (active) | enough cells in well | 139
Rars1 (GeneID 104458) | 0.69 | enough cells in well | 167
Mob3c (GeneID 100465) | 1.68 | enough cells in well | 336
Klk1b11 (GeneID 16613) | 0.9 | enough cells in well | 264
Spire2 (GeneID 234857) | 0.65 | enough cells in well | 132
Chrnd (GeneID 11447) | -0.51 | enough cells in well | 237
Pde3a (GeneID 54611) | 0.88 | enough cells in well | 298
Ipo5 (GeneID 70572) | -0.4 | enough cells in well | 199
Taf1d (GeneID 75316) | -1.36 (active) | enough cells in well | 148
St3gal2 (GeneID 20444) | 0.38 | enough cells in well | 101
Arl2 (GeneID 56327) | -1.27 | enough cells in well | 113
Ppp1r15a (GeneID 17872) | 0.47 | enough cells in well | 275
Rmnd5a (GeneID 68477) | -0.33 | enough cells in well | 225

Just “Tnf reporter robust z-score” (8 entries from above):
Cox6c (GeneID 12864)	-0.56
Flvcr2 (GeneID 217721)	0.1
Or7g16 (GeneID 258598)	1.99
Srgap3 (GeneID 259302)	0.52
Nim1k (GeneID 245269)	1.38
Alg3 (GeneID 208624)	0.01
Atoh7 (GeneID 53404)	1.89
Csnk1a1 (GeneID 93687)	-1.14
